For series [1], the target named is Serum albumin (human albumin) (Homo sapiens) (UniProt P02768). Put plainly: filter binding. As to conditions: 2'-F pyrimidines (2'-F-C, 2'-F-U) in the selection library; modification of the synthetic RNA not stated; no signal at any albumin amount; also negative control in pull-down; label: 3' biotin.
Series [2] deals with Neurogranin (NRGN) (Homo sapiens) (UniProt Q92686). The experiment in a line: filter binding. The note with it: 2'-F pyrimidines (2'-F-C, 2'-F-U) in the selection library, modification of the synthetic RNA not stated, 20 mM Hepes pH 7.4, 150 mM NaCl, 2 mM CaCl2, 0.1% BSA, 37 C, purified recombinant protein, label: 3' biotin.

Protein sequences, listed by entry. Tags and fused reporters are not part of them.
UniProt Q92686, whole entry: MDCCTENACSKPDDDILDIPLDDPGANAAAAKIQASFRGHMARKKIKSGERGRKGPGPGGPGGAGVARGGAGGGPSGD

For at least one entry, the source does not settle the construct or the ends of the probe. For some of these results: Negatives hold for the conditions tested.

For “UCUAACGCCUCCCGUAUGUUUUCCUUUUUCCAUUGCGGAU [NRGN-A1]”, the values for the binding result in series [1] and in series [2] (minimum protein for dot-blot detection 1.25 pmol with 1 pmol RNA in 20 ul) were “no binding” and “binds”, respectively.

In the case of “UUUUCAUUUUCAUUUUUUUCCAAAUCGAUCCGCCGGACCUUAU [NRGN-A6]”, the results for the binding result in series [1] and in series [2] (minimum protein for dot-blot detection 0.63 pmol with 1 pmol RNA in 20 ul) were “no binding” and “binds”, respectively.

Values taken from patent publication US20140045713.
